Results are given in words; binding and its absence hold for the method and conditions named. Binding can be weak; no strength is given. Where a sequence is shown, tags or fusion partners need not be part of it. For some assays here: In cells and extracts the contact can be indirect.

The source of these data is publication PMC10298087.

Assay [1] deals with T1, HA-tagged human TRIM28-K304R (human) (UniProt Q13263).
T1 sequence: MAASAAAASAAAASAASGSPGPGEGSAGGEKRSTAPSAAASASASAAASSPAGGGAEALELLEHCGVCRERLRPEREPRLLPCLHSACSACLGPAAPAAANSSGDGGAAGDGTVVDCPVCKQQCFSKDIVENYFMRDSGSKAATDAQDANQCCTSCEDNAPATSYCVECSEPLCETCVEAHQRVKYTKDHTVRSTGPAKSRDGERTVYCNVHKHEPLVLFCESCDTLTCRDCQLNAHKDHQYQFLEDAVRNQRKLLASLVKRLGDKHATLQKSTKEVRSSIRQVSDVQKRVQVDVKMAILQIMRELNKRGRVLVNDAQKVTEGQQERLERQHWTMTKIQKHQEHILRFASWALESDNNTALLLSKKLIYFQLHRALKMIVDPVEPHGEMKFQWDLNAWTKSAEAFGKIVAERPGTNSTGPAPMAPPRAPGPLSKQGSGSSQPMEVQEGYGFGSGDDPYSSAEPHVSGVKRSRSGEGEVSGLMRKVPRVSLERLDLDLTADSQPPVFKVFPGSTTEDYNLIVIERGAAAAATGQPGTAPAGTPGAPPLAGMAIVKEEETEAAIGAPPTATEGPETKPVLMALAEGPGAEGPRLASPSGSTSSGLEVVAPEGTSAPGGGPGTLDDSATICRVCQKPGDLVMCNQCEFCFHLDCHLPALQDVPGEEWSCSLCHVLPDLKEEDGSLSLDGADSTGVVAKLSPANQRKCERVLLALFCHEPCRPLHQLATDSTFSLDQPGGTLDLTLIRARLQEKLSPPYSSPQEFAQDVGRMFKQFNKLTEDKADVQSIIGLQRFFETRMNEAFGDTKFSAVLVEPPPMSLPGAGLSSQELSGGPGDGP
Kind of assay: co-IP; HA-tagged human TRIM28 (WT, K304Q, K304R) and Gal4^DBD-KRAB in K562 cells; anti-HA agarose; whole-cell extract buffer with 300 mM NaCl, 0.1% Triton X-100, 4 °C.

Assay [2] addresses T2, FLAG-tagged mouse Trim28-K305Q (mouse) (UniProt Q62318).
T2 sequence: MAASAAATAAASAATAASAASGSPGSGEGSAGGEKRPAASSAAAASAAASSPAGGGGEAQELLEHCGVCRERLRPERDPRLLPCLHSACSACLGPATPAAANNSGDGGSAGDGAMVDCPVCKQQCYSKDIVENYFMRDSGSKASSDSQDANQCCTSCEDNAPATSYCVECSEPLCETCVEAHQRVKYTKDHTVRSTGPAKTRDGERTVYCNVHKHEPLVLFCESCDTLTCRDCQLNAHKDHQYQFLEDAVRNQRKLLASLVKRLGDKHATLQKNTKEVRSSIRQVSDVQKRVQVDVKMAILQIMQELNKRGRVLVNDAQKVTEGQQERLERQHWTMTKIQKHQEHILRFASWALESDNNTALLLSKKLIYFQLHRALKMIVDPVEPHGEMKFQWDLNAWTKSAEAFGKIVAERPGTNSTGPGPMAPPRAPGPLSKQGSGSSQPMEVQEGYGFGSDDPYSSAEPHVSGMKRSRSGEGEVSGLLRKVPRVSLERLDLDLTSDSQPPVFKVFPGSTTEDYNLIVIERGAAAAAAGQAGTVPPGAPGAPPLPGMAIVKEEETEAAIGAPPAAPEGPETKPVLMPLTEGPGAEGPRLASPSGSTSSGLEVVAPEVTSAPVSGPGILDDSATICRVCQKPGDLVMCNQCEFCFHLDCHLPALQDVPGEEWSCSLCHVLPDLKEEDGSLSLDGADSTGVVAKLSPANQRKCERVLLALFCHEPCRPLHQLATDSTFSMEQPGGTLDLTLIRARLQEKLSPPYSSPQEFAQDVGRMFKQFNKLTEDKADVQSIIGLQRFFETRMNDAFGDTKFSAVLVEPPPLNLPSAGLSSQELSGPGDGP
The experiment in a line: native gel or EMSA; nuclear extracts of HEK293T cells transfected with Gal4^DBD-KRAB and FLAG-Trim28; 32P-labelled Gal4-binding elements; supershift with anti-Gal4 or anti-FLAG; room temperature; 5% native gel. (Mobility shift assays separate free from complexed probe on a gel.)

As for “Gal4 DNA-binding domain (Gal4^DBD)-KRAB (domain or fragment)”, the binding entry in assay [1] and in assay [2] was “binds” in each case.
